These are yes or no findings as the source states them, for the method shown. Some entries that bind do so weakly or less than the wild type. Blank lines part the entries; values can stand above or below the binder they belong to.
Legend:
[1] = molecular target: T1, Benzylsuccinate synthase α subunit (BSSα) (UniProt O68395); experiment: crystal structure; purified BSSαγ and purified BSSβ (50 mM HEPES pH 8.0, 300 mM NaCl) mixed in a 1:2 molar ratio, 20 mg/mL; sitting-drop vapor diffusion, anaerobic; 29% PEG 3350, 60 mM KCl, 100 mM Tris pH 8.5, 5 mM fumarate; both purified
T1 sequence: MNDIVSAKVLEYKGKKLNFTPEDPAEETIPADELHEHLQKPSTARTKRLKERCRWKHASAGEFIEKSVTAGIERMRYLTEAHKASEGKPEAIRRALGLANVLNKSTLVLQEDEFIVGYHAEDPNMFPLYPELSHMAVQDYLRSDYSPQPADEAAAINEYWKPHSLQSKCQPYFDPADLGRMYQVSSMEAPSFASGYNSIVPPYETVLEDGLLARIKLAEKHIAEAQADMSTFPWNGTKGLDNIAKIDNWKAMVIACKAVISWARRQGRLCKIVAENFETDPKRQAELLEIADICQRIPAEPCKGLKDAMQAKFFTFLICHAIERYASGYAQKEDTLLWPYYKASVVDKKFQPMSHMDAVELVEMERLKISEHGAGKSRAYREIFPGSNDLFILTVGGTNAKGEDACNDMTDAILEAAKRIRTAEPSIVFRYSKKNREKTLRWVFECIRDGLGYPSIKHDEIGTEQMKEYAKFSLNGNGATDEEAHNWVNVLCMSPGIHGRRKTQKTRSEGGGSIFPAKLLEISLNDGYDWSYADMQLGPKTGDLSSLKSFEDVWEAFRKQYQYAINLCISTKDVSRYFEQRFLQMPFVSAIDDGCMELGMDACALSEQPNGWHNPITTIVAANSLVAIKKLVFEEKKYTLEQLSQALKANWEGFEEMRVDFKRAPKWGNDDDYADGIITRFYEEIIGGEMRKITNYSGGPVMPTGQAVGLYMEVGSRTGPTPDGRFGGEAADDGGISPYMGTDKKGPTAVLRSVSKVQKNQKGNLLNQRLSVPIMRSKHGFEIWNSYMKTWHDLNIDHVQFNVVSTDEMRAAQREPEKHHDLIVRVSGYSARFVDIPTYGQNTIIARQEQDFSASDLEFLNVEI

[2] = substrate: T2, BSSαγ (benzylsuccinate synthase catalytic α subunit with accessory γ subunit) (UniProt O68395); experiment: as above
T2 sequence 1: T1 sequence
T2 sequence 2: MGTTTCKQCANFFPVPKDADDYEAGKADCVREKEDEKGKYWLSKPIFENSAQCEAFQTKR

- binding [1]: binds
B1: Benzylsuccinate synthase γ subunit (BSSγ) (protein, UniProt O68394 1-60)
chain: T2 sequence 2

- binding [1]: binds
B2: Benzylsuccinate synthase α subunit (BSSα) (enzyme, UniProt O68395 1-864)
chain: T1 sequence

- binding [2]: binds
- binding [1]: binds
B3: Benzylsuccinate synthase β subunit (BSSβ) (protein, UniProt O68396 1-81)
chain: MEGSNMETGQNLQNQPHTEVGTARPCRSCKWQTPDPTDPHRGQCTANRHAMGGVWKRWLRDVENTTCSRHEEGKLSFRDHV
